Experimental data as given in PMC3448846 (European neuropsychopharmacology : the journal of the …, 2012).

Tested on: spatial learning and memory
Test: Morris water maze
Type: in vivo, male Wistar rats
Settings: 2 mg/kg i.p., vs solvent-treated controls
Method in brief: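 Male Wistar rats, 220–250 g, n=8/group, dosed i.p. in 85% water/14% propylene glycol/1% Tween 80 (sonicated) 20 min before each daily block for 5 acquisition days. Pool 200 cm wide with 23°C water; 15×10 cm platform 2 cm below the surface. Each block had 4 trials (max 120 s, 60 s interval, pseudorandom starts). Per-rat daily means were recorded. The probe trial measured target-region time and peripheral-ring distance.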

SMILES: CN1C(=O)CN=C(c2ccccc2)c2cc(Cl)ccc21 [DZP, diazepam, reference compound]
- path efficiency during acquisition: significantly lower path efficiencies than solvent-treated controls from day two onwards
